Results are given in words; binding and its absence hold for the method and conditions named. Binding seen in cells or lysates may run through a third protein. A result given as binding can be weak or reduced; the word gives no strength.
Target: GST-CBUA0027 (Coxiella burnetii) (UniProt H7C7G0)
Assay: pull-down

Substance: CBUA0028-V5-6xHis (from UniProt B5U8Q4)
- binding: binds

Reference: paper doi:10.1101/2022.09.15.508156
